Results: patent US20220089705A1
Results are given in words; binding and its absence hold for the method and conditions named. Binding seen in cells or lysates may run through a third protein. Some results given as binding are weak or reduced against the parent protein; the word gives no strength.

By UniProt entry, the sequences of proteins in these tests, tags left out.
UniProt Q9R1E0: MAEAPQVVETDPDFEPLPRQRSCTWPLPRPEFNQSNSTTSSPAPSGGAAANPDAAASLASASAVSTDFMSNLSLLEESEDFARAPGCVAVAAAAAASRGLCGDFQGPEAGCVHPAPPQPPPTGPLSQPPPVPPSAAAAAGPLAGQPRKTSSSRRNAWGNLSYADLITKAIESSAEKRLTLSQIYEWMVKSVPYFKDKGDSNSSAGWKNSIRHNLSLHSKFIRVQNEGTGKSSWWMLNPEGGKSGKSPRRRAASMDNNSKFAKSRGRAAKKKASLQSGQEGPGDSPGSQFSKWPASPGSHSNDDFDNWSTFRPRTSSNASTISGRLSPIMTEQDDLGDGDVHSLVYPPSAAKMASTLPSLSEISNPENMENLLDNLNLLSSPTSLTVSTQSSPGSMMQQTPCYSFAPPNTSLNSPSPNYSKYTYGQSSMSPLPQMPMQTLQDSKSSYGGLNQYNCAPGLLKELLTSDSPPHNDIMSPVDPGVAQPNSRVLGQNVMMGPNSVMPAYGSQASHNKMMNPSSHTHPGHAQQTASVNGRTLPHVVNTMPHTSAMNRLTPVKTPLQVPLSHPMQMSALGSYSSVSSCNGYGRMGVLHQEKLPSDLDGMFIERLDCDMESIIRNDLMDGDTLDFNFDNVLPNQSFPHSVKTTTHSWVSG
UniProt P56546: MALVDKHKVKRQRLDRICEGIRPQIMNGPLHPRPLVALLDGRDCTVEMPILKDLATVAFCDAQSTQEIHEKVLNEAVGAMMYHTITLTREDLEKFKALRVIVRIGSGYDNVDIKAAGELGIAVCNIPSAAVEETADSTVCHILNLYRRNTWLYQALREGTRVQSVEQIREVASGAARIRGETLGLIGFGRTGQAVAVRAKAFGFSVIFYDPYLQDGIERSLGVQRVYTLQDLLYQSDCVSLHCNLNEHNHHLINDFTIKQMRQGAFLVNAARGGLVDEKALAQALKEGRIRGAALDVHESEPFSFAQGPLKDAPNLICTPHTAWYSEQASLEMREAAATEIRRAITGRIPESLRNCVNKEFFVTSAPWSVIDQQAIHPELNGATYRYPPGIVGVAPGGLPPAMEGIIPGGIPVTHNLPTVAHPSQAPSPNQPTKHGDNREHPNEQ

Legend:
[1] = target: FoxO1, endogenous (mouse primary hepatocytes and mouse liver) (mouse) (UniProt Q9R1E0); experiment: co-immunoprecipitation of the endogenous complex from liver of mice given recombinant aP2
[2] = target: FoxO1, endogenous (mouse primary hepatocytes and mouse liver) (mouse) (UniProt Q9R1E0); experiment: co-immunoprecipitation of the endogenous complex from primary hepatocytes
[3] = target: FoxO1, endogenous (mouse primary hepatocytes and mouse liver) (mouse) (UniProt Q9R1E0); experiment: co-immunoprecipitation of the endogenous complex from mouse liver homogenates
[4] = target: FoxO1, endogenous (mouse primary hepatocytes and mouse liver) (mouse) (UniProt Q9R1E0); experiment: co-immunoprecipitation of the native complex from primary hepatocytes treated with or without 50 µg/ml aP2 and with or without forskolin for 2 h; IP anti-CtBP2, Western blot for FoxO1
[5] = target: CtBP2, endogenous (mouse primary hepatocytes and mouse liver) (mouse) (UniProt P56546); experiment: co-immunoprecipitation from mouse liver homogenate (aP2 KO or WT mice, NC or HFD); IP anti-FoxO1, Western blot for CtBP2
[6] = target: CtBP2, endogenous (mouse primary hepatocytes and mouse liver) (mouse) (UniProt P56546); experiment: densitometric quantification of the co-immunoprecipitation blot of FIG. 36J (mouse liver)
[7] = target: CtBP2, endogenous (mouse primary hepatocytes and mouse liver) (mouse) (UniProt P56546); experiment: co-immunoprecipitation from liver homogenate of lean wild-type mice given vehicle or recombinant aP2 for 5 days; IP anti-FoxO1, Western blot for CtBP2
[8] = target: CtBP2, endogenous (mouse primary hepatocytes and mouse liver) (mouse) (UniProt P56546); experiment: densitometric ratio of co-precipitated CtBP2 to precipitated FoxO1 of the blot of FIG. 36C
[9] = target: CtBP2, endogenous (mouse primary hepatocytes and mouse liver) (mouse) (UniProt P56546); experiment: densitometric ratio of co-precipitated CtBP2 to precipitated FoxO1 of the blot of FIG. 36A
[10] = target: CtBP2, endogenous (mouse primary hepatocytes and mouse liver) (mouse) (UniProt P56546); experiment: densitometric quantification of the co-immunoprecipitation blot of FIG. 36E (mouse liver)
[11] = target: CtBP2, endogenous (mouse primary hepatocytes and mouse liver) (mouse) (UniProt P56546); experiment: densitometric quantification of the co-immunoprecipitation blot of FIG. 36G (mouse liver)
[12] = target: CtBP2, endogenous (mouse primary hepatocytes and mouse liver) (mouse) (UniProt P56546); experiment: co-immunoprecipitation from mouse liver homogenate (lean NC mice, HFD mice given vehicle or monoclonal aP2 antibody CA33); IP anti-FoxO1, Western blot for CtBP2
[13] = target: CtBP2, endogenous (mouse primary hepatocytes and mouse liver) (mouse) (UniProt P56546); experiment: co-immunoprecipitation with anti-FoxO1 from liver homogenates of lean and ob/ob mice, blot CtBP2
[14] = target: CtBP2, endogenous (mouse primary hepatocytes and mouse liver) (mouse) (UniProt P56546); experiment: co-immunoprecipitation with anti-FoxO1 from liver homogenates of mice on normal chow or high fat diet, blot CtBP2
[15] = target: CtBP2, endogenous (mouse primary hepatocytes and mouse liver) (mouse) (UniProt P56546); experiment: co-immunoprecipitation with anti-FoxO1 from primary hepatocytes treated with or without 50 µg/ml aP2 and 2 µM forskolin, blot CtBP2

Row | binding [1] | binding [2] | binding [3] | binding [4] | binding [5] | binding [6] | binding [7] | binding [8] | binding [9] | binding [10] | binding [11] | binding [12] | binding [13] | binding [14] | binding [15] | Substance
1 | binds | binds | binds | binds | – | – | – | – | – | – | – | – | – | – | – | CtBP2, endogenous (mouse primary hepatocytes and mouse liver) (from UniProt P56546 1-445)
2 | – | – | – | – | binds | binds | binds | binds | binds | binds | binds | binds | binds | binds | binds | FoxO1, endogenous (mouse primary hepatocytes and mouse liver) (from UniProt Q9R1E0 1-652)
